From PubChem BioAssay AID2685 (National Center for Advancing Translational Sciences (NCATS), 2010)
The other results are listed elsewhere or left out. Further columns of the screen follow, without active or inactive calls. The list favours compounds with an active or inconclusive main result. Potencies come from curve fits of mixed quality, noted in brackets.

Experiment: qHTS Assay for Lipid Storage Modulators in Drosophila S3 Cells;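 as to cell number change: cells counted by Cell Tracker Red CMTPX staining in the red channel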
Details: BODIPY lipid droplet fluorescence, 18-24 h; for cell number change: measured here: cell count max response, cells fed with added oleic acid
Method in brief: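 Drosophila S3 cells loaded with oleic acid (400 uM, as added) and compounds at several concentrations; lipid droplets imaged by 488-nm laser-scanning cytometry, 500–530 nm intensity and object ratio to cell channel. Percent activity normalized to 20 uM Triacsin C.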

[1] = measured here: cell number channel AC50, cells fed with added oleic acid
[2] = measured here: lipid fluorescence (Fed channel) AC50, cells fed with added oleic acid

SMILES | cell number change [%] | AC50 [1] | AC50 [2]
O=C(Nc1ccc(Cl)c(Cl)c1)Nc1ccccc1O | -46.9 | 29.1 µM [falling, single point] | 29.1 µM [falling, single point]
COC(=O)c1cnn(-c2ccccc2)c1N | -0.64 | – | –
O=C(CCNC(=O)c1ccco1)NCCc1ccc(Cl)cc1 | 21.1 | – | –
Cc1ccccc1NC(=O)NC1(C(=O)N2CCN(C)CC2)CCCCC1 | 16.4 | – | 6.51 µM [falling, single point]
Cc1ccc(C(=O)OCc2nc(N)nc(Nc3ccccc3C)n2)cc1 | 29.2 | – | 3.66 µM [rising, partial curve, poor fit]
Cc1ccc(NC(=O)C2CCN(S(=O)(=O)c3ccc4c(c3)NC(=O)C(C)S4)CC2)cc1Cl (stereo unspecified) | 39.9 | 29.1 µM [rising, single point] | 18.4 µM [falling, partial curve]
CC(=O)c1cccc(N(C(=O)c2csnn2)C(C(=O)NC2CCCC2)c2ccccc2)c1 (stereo unspecified) | -9.52 | – | 29.1 µM [falling, single point]
O=C(CSc1nnnn1-c1ccccc1)NC(=O)Cc1ccccc1 | 5.82 | 0.731 µM [falling, single point] | –
C=CCn1c(CNC(=O)c2ccccc2F)nnc1SCc1nc2ccccc2c(=O)[nH]1 | -8.85 | – | –
COCc1cc(C)nc2sc(C(=O)Nc3ccccc3Br)c(N)c12 | -7.72 | – | 16.4 µM [falling, partial curve]
CCOc1ccccc1CNC(=O)CCCC(=O)n1nc(C)c2ccccc21 | -11.6 | – | –
CCn1c(SCC(=O)NCCc2ccccc2)nnc1-c1ccco1 | 0.0444 | – | –
O=C(COc1ccc(Br)cc1)Nc1ccc(S(=O)(=O)Nc2ccccn2)cc1 | – | – | 29.1 µM [rising, single point]
Cc1ccc(C)c(N2CCN(c3ccc4cc(S(=O)(=O)N5CCCCC5)ccc4n3)CC2)c1 | 119 | 16.4 µM [rising, partial curve] | 14.6 µM [rising, partial curve]
O=c1cc(/C=C/c2c(F)cccc2Cl)[nH]c2ccccc12 | 31.5 | 29.1 µM [rising, single point] | 2.06 µM [falling, partial curve, poor fit]
COc1ccc(S(=O)(=O)N2CCN(CCc3ccccc3)CC2)c(OC)c1 | – | – | 0.58 µM [rising, single point]
COc1ccc(C2=NOC(CNC(N)=S)C2)cc1 (stereo unspecified) | 4.94 | – | 0.116 µM [rising, full curve, poor fit]
COc1ccc(C(=O)OCCCOC(=O)c2ccc(OC)cc2OC)c(OC)c1 | -5.95 | – | –
CCC(=O)Nc1cc(-c2nn(CC(=O)N3CCCCC3)c(=O)c3ccccc23)ccc1N1CCOCC1 | 48.3 | 18.4 µM [rising, single point] | –
Cc1c(/C=N/NC(=O)c2cccnc2)c2ccccn2c1C(=O)c1ccc(F)cc1 | 16.7 | – | 1.16 µM [rising, partial curve]
COc1ccc(OC)c(/C=N/NC(=O)CCCC(=O)Nc2cccc(Br)c2)c1 | – | – | 29.1 µM [falling, single point]

Five structures already listed, ordered by number of heavy atoms, rising:
SMILES | cell number change [%] | AC50 [1] | AC50 [2]
COc1ccc(C2=NOC(CNC(N)=S)C2)cc1 (stereo unspecified) | 4.94 | – | 0.116 µM [rising, full curve, poor fit]
COCc1cc(C)nc2sc(C(=O)Nc3ccccc3Br)c(N)c12 | -7.72 | – | 16.4 µM [falling, partial curve]
Cc1ccccc1NC(=O)NC1(C(=O)N2CCN(C)CC2)CCCCC1 | 16.4 | – | 6.51 µM [falling, single point]
COc1ccc(OC)c(/C=N/NC(=O)CCCC(=O)Nc2cccc(Br)c2)c1 | – | – | 29.1 µM [falling, single point]
Cc1ccc(C)c(N2CCN(c3ccc4cc(S(=O)(=O)N5CCCCC5)ccc4n3)CC2)c1 | 119 | 16.4 µM [rising, partial curve] | 14.6 µM [rising, partial curve]

(list continues)

SMILES | cell number change [%] | AC50 [1] | AC50 [2]
Cc1csc2nc(NC(=O)c3ccccc3)sc(=O)c12 | 30.4 | 14.6 µM [rising, single point] | –
CC(=O)c1ccc(N2CCC(c3cc(-c4ccc(Cl)cc4Cl)n[nH]3)CC2)c([N+](=O)[O-])c1 | -25.3 | – | –
COc1ccccc1OCC(=O)OCc1cc(-c2ccco2)on1 | 12.1 | 0.651 µM [falling, single point] | 0.731 µM [falling, single point]
COC(=O)c1nn(-c2c(C)n(C)n(-c3ccccc3)c2=O)cc1O | – | – | 1.84 µM [falling, single point]
O=c1cc(CSc2nnnn2-c2ccccc2)nc(Nc2ccc(F)cc2)[nH]1 | -0.482 | – | 1.3 µM [falling, partial curve]
COc1ccc(Cc2nc(-c3ccc(-n4cccc4)cc3)no2)cc1OC | – | 1.64 µM [rising, partial curve] | 2.06 µM [rising, partial curve]
CCn1c(=NC(=O)c2ccco2)sc2cccc(F)c21 | – | 0.184 µM [rising, full curve, poor fit] | –
CC(=O)c1ccc(OC(=O)c2cccs2)cc1 | -35.2 | 0.92 µM [falling, full curve] | 1.3 µM [falling, full curve]
CCCNC(=O)c1c(C)cc(=O)oc1C | 74.8 | – | –
COc1ccc(-c2nnc(SCC(C)C)o2)cc1 | – | – | 5.17 µM [rising, partial curve]
COc1ccc(C2CC(c3ccc(C)cc3)=NN2C(=O)CCC(=O)O)cc1OC (stereo unspecified) | -1.02 | – | 0.146 µM [rising, full curve, poor fit]
NC(=O)CC(NC(=O)Cc1ccc(Br)cc1)c1ccc(NC2CC3CCC2C3)c([N+](=O)[O-])c1 (stereo unspecified) | -28.2 | – | –
CC(=O)Oc1c(C(=O)c2nnc(C)o2)c(=O)n(C)c2ccccc12 | -1.98 | – | 0.0058 µM [falling, full curve, poor fit]
COc1ccc(C)cc1NC(=O)/C=C/c1ccc(OC)c(S(=O)(=O)N2CCOCC2)c1 | -10.5 | – | 7.31 µM [falling, partial curve]
NS(=O)(=O)c1ccc(CCNCC(=O)N2CCC(Cc3ccccc3)CC2)cc1 | 39.6 | 6.51 µM [rising, partial curve] | 6.51 µM [falling, single point]
O=C(COc1ccccc1Cl)N1N=C(c2cccs2)CC1c1ccco1 (stereo unspecified) | 6.77 | – | 0.0731 µM [falling, partial curve, poor fit]
COc1ccc(NC(=O)c2ccccc2OCc2c(C)noc2C)cc1OC | 12.7 | – | 29.1 µM [rising, single point]
CC(Oc1ccccc1Cl)C(=O)Nc1ccc(S(=O)(=O)N2CCCC2)cc1 (stereo unspecified) | 545 | 23.1 µM [rising, partial curve] | –
Cc1nc2scc(-c3ccccc3)c2c(=O)n1/N=C/c1ccco1 | -9.21 | – | 4.11 µM [rising, partial curve]
Cc1onc(-c2ccccc2Cl)c1C(=O)N1CCOC12CCCCC2 | -6.15 | – | –
CCOc1cc(C=O)ccc1OCCCN1C(=O)NC(C)(C)C1=O | 18.1 | – | 3.66 µM [falling, full curve]

SMILES | cell number change [%] | AC50 [1] | AC50 [2]
O=[N+]([O-])c1ccc(N/N=C/c2cn(Cc3ccc(F)cc3)c3ccccc23)nc1 | 14 | – | –
Cc1noc(C)c1C(=O)OCC(=O)NCCc1ccc(Cl)cc1 | 2.17 | – | 29.1 µM [rising, single point]
CN1CCN(c2ccc(S(=O)(=O)N3CCCCC3)cn2)CC1 | 24.1 | – | –
COc1ccc(NC(=O)CN2C(=O)/C(=C3\SC(=S)N(C4CCS(=O)(=O)C4)C3=O)c3ccccc32)cc1 (stereo unspecified) | 26.2 | – | 3.66 µM [rising, full curve]
CCN(Cc1ccccc1)C(=O)c1cc2cc(OC)c(OC)cc2[nH]1 | 18.3 | – | 0.517 µM [rising, full curve, poor fit]
CCOC(=O)N1CCN(C(=O)Cn2ncc3c2-c2ccccc2OC3)CC1 | 61.8 | 6.51 µM [rising, single point] | 6.51 µM [rising, single point]
CCn1c(CNC(=O)c2ccco2)nnc1SCCOc1ccccc1 | 7.69 | – | –
CCOC(=O)Cc1csc(N/N=C\c2ccccc2OC)n1 | -16.8 | – | 29.1 µM [rising, single point]
Cc1c(Br)c(C(F)(F)F)nn1CC(=O)NCC1CCCO1 (stereo unspecified) | 3.25 | – | 0.116 µM [falling, full curve, poor fit]
COc1ccc(NC(=S)N2CCC(Cc3ccccc3)CC2)cc1 | 8.67 | – | –
CCn1c(SCC(N)=O)nc2sc3c(c2c1=O)CCCC3 | 16.4 | – | –
O=C(Nc1cccc(C(=O)NC2CCCCC2)c1)c1ccccc1 | -1.74 | – | 0.58 µM [falling, single point]
CCOC(=O)c1c(C)nc2ccc(C)cn12 | 68.1 | 29.1 µM [rising, single point] | –
Cc1ccc(Cn2nc(C)c(C(=O)NCC(c3ccc(F)cc3)N3CCOCC3)c2Cl)cc1 (stereo unspecified) | 6.65 | 4.61 µM [rising, single point] | –
O=C(NC(CO)C(=O)OCc1ccccc1)OCc1ccccc1 (stereo unspecified) | -21.2 | 0.092 µM [falling, full curve, poor fit] | 0.146 µM [falling, full curve, poor fit]
CCOc1ccc(C(=O)NCC(=O)OCCCOC(=O)CNC(=O)c2ccc(OCC)cc2)cc1 | 9.38 | – | 16.4 µM [rising, partial curve]
N#C/C(=C/c1ccc(C(=O)O)cc1)C(=O)NCc1ccccc1 | -99.4 | 5.17 µM [falling, full curve] | 29.1 µM [falling, single point]
O=C(CC1NC(=S)NC1=O)c1ccc(Cl)cc1 (stereo unspecified) | 23.5 | – | 11.6 µM [falling, partial curve, poor fit]
CCc1nc2ccc(C(=O)N3CCN(c4cccc(Cl)c4)CC3)cc2nc1CC | 33.6 | 0.231 µM [rising, full curve, poor fit] | 1.64 µM [rising, partial curve]
CC(C)CC(=O)Nc1nnc(S(=O)(=O)N2c3ccccc3CC2C)s1 (stereo unspecified) | 24.9 | – | 29.1 µM [rising, single point]
O=C(CCC(=O)N1CCOc2ccc(Cl)cc21)NCCCN1CCN(Cc2ccccc2)CC1 | 14.4 | – | 14.6 µM [falling, single point]
